# Results reported in article doi:10.1101/2021.05.14.444139.
# Results are given in words; binding and its absence hold for the method and conditions named. Binding seen in cells or lysates may run through a third protein. Here binding means that the protein was enriched with, or labelled near, the bait; the list need not be complete.
# Biological target: PQN-59 (C. elegans (endogenous in N2 embryos))
# Test: affinity purification with mass spectrometry
row,binding,Binder
1,binds,"Large Ribosomal subunit 13 (protein, UniProt P91128 1-207) MAPRGNQMLGNAHFRKHWHKRIKTWFDQPARKLRRRQNRQAKAVEIAPRPVAGLLRSVVRCPQKRYNTKTRLGRGFSLQELKAAGISQAQARTIGIAVDVRRTNKTAEGLKANADRLKEYKAKLILFPKKASAPKKGDSSAEELKVAAQLRGDVLPLSHTITFDEPRQVTDAERKVEIFRLLRKERADKKYRGKREKRAREAAEENK"
2,binds,"Small Ribosomal Subunit 2 (protein, UniProt P51403 1-272) MADRGGFQSGFGGRGGGRGGARPAGDRPAGRGGRGGRGGRGGRGGRAGRGGEKETEWTPVTKLGRLVKEKKITTLEEIYLNSLPIKEFEIIDALCSNLKDEVLKISPVQKQTTAGQRTRFKAFVAIGDHAGHVGLGVKCSKEVATAIRGAIVAAKLAVVPVRRGYWGNKIGLPHTVPCKVTGKCASVMVRLIPAPRGTGIVSAPVPKKLLHMAGIEDCYTAAKGSTATLGNFAKATYAALQRTYSYLTPDLWKEEALEKSPYQRHHEYLARN"
3,binds,"Large Ribosomal subunit 28 (protein, UniProt Q21930 1-126) MSDALVWQVIRNNSAFLRTQRGIGKRFSTEKFNLKKVNSPKYSGLANKHAIDVSAAAKGVVVSTKNEKGRPAKAVTTSTLSKTPVASVRRLAKNAGFNKFNKLAQRRAAAIVRSQVKKAKVQKTDA"
4,binds,"Small Ribosomal Subunit 7 (protein, UniProt Q23312 1-194) MPEIIGKLLKSDGKVVSEIEKQVSQALIDLETNDDVQSQLKELYIVGVKEVELGNKSAIIIYVPVPQLKAFHKIHPALVRELEKKFGGRDILILAKRRILPKPQRGSKARPQKQKRPRSRTLTAVHDAWLDELVYPAEVVGRRIRVKLDGKKVYKVHLDKSHQTNVGHKIGVFASVYRKLTGKDVTFEFPDPIF"
5,binds,"Small Ribosomal Subunit 8 (protein, UniProt P48156 1-208) MGISRDSWHKRYKTGATQPVPHKKRKFELGRPAANTKIGAHRVRLVRTRGGNEKYRALRLDSGNFSWASEQTTRKTRIVDTMYNATNNELVRTKTLVKGAIISVDAAPFRQWYEAHYALPLARKKNAKLSEEDNAILNKKRSHHTMKKYTERQKTAAVDALLIEQFNTGRLLARISSSPGQVGQANGYILEGKELDFYLRKIRAKKAK"
6,binds,"Small Ribosomal Subunit 12 (protein, UniProt P49196 1-140) MSDAGGDVQVAPAAVAQGPMDKEGALRAVLRAAHHADGLAKGLHETCKALDKREAHFCVLAENCDEPQYVKLVETLCAEHQIPLIKVADKKIIGEYCGLCKYDKEGKARKVVGCSSAVVTNWGNEEQGRAILTDYFASKN"
7,binds,"Small Ribosomal Subunit 17 (protein, UniProt O01692 1-130) MSRVRTKTVKKASRVLIEKYYTRMTNDFHNNKRVCDEVAIIGSKPLRNKIAGYITHLMRRIERGPVRGISIKLQEEERERRDNYMPEISTVDPSQLTSIKVDTDTSDMLKAAGFNLPNVTVEDQGKNKGK"
8,binds,"Small Ribosomal Subunit 3 (protein, UniProt P48152 1-247) MAANQNVTKKKKAVIGGIFKAELNNFLMKELAEDGYSGVEVRSTPARAEVIIMATRTQNVLGERGRRIKELTSVVQKRFGFEEGSVELYAEKVSNRGLCAVAQCESLRYKLVGGLAVRRACYGVLRFIMESGAQGVEVIVSGKLRGQRAKAMKFVDGLMIHSGHPVNDYIQQAVRHVQLRQGVIGIKVKIMLPYDPRGQNGPRNALPDHVQIVEPQEEVLPKEPHSQHKEEKKDVQVPAAQPVAPVQ"
9,binds,"Small Ribosomal Subunit 27 (protein, UniProt Q9TXP0 1-83) MPLAVDLLHPEPQREIRCHKLKRLVQHPNSYFMDVKCSGCFKISTVFSHATTVVVCVGCNTVLCQPTRGKAKLTEGCSFRKKQ"
10,binds,"Large Ribosomal subunit 33 (protein, UniProt P49180 1-124) MADTAVARRPSAPTTGRLYVKAIFTGFKRGLRTQSEHTSLLKLEGVFNKEDAGFYAGKRVVYLYKAHNKTLKTGHTVATRTRAIWGKITRPHGNAGAVRAKFHHNIPPSALGKRIRVLLYPSNI"
11,binds,"Small Ribosomal Subunit 13 (protein, UniProt P51404 1-151) MGRMHNPGKGMAKSAIPYRRSVPSWQKMTAEEVQDQIVKMAKKGLRPSQIGVILRDSHGVGQVRRLAGNKIFRILKSKGMAPELPEDLYHLVKKAVAIRKHLERSRKDIDSKYRLILVESRIHRLARYYKTKRQLPPTWKYESGTAASLVS"
12,binds,"Large Ribosomal subunit 6 (protein, UniProt P47991 1-217) MVGKRNLPVISRNFDLSPGVLRFSASRLRLKKGEKKPKFTKDTSAKLPKLQRNGTKFALGHSKTVTLRKTLTPGTVLIVLAGRHKGKRVVFLKQLPQSGLLLVTGPHKINGFPLRRIGQAFVIATSLKVNVSGVKIPEHINDEYFKRKSTAQKTGKNIFASGKTEYTVSEQRKKDIKTVDAPILAAIKKHPEHKFLFGYLGTRFSLGKNQYPHKMQF"
